Results deposited as PubChem BioAssay AID1259254 (NCATS, 2017).
Test: 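Genome-wide screen for genes that prevent DNA re-replication in cancer cells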 (primary screen). System: human HCT116 colorectal cancer cells. Knock-down reagent: single siRNA against human genes. Time to read-out: 3 days. Measured: 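Nuclei stained with Hoechst and imaged; cell-cycle phase assigned by DNA content; G2 share scaled per plate, non-targeting siRNA 0%, GMNN siRNA 100%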. Scale: G2 robust z-score: higher = more G2 cells, more excess DNA replication. Hit rule: 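An siRNA counts as active if its G2 robust z-score lies at least 5 MADs above the screen median; here such calls match roughly 38% of GMNN control or more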.
Here is a random part of about 59,000 reagents. Over the whole deposit, about 1,550 (2.6%) are marked active. 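G2 share is only a proxy for re-replication; each gene was hit by three separate siRNAs, and active genes were retested.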 The numbers tell different reagents against one gene apart. Further read-outs or replicates are left out here. Not stated in the record: the amount of reagent.

CCER2 (GeneID 643669) #1: G2 robust z-score = 0.795; outcome = inactive
CCER2 (GeneID 643669) #2: G2 robust z-score = -0.572; outcome = inactive
CCER2 (GeneID 643669) #3: G2 robust z-score = -0.14; outcome = inactive
EEF2KMT (GeneID 196483) #1: G2 robust z-score = -0.364; outcome = inactive
EEF2KMT (GeneID 196483) #2: G2 robust z-score = 0.0676; outcome = inactive
EEF2KMT (GeneID 196483) #3: G2 robust z-score = 0.2; outcome = inactive
KRT74 (GeneID 121391) #1: G2 robust z-score = -0.979; outcome = inactive
KRT74 (GeneID 121391) #2: G2 robust z-score = -0.448; outcome = inactive
KRT74 (GeneID 121391) #3: G2 robust z-score = 0.635; outcome = inactive
KCNAB3 (GeneID 9196) #1: G2 robust z-score = -0.0293; outcome = inactive
KCNAB3 (GeneID 9196) #2: G2 robust z-score = 3.46; outcome = inactive
KCNAB3 (GeneID 9196) #3: G2 robust z-score = -1.18; outcome = inactive
PCDHB9 (GeneID 56127) #1: G2 robust z-score = 1.53; outcome = inactive
PCDHB9 (GeneID 56127) #2: G2 robust z-score = -0.34; outcome = inactive
PCDHB9 (GeneID 56127) #3: G2 robust z-score = -0.636; outcome = inactive
FATE1 (GeneID 89885) #1: G2 robust z-score = -0.0665; outcome = inactive
FATE1 (GeneID 89885) #2: G2 robust z-score = 6.25; outcome = active
FATE1 (GeneID 89885) #3: G2 robust z-score = -0.4; outcome = inactive
LINC02714 (GeneID 729305) #1: G2 robust z-score = 1.59; outcome = inactive
LINC02714 (GeneID 729305) #2: G2 robust z-score = 0.705; outcome = inactive
LINC02714 (GeneID 729305) #3: G2 robust z-score = -0.468; outcome = inactive
INPP5K (GeneID 51763) #1: G2 robust z-score = 3.49; outcome = inactive
INPP5K (GeneID 51763) #2: G2 robust z-score = 1.56; outcome = inactive
INPP5K (GeneID 51763) #3: G2 robust z-score = -1.03; outcome = inactive
